Patent US20110212084A1

Key:
Assay in all cases: condition: competitor series starting at approximately 1000-fold the KD; DELFIA epitope competition; competitor vs biotinylated human IgE on immobilised IgG
[1] = molecular target: human IgD (purified, Calbiochem) (human)
[2] = molecular target: human IgA (purified, Calbiochem) (human)
[3] = molecular target: human IgM (purified, Calbiochem) (human)
[4] = molecular target: human IgG (purified, Calbiochem) (human)

Measured: binding

B1: Antibody 33GL (germlined IgG) (antibody, V domains shown)
VH: EVQLLESGGGLVQPGGSLSLSCAAPGFTFSSYAMSWVRQAPGKGLEWVSAISGGSGGRTYYADSVKGRFTISKDNSKNTLYLQMNSLRAEDTAVYYCARHIAVAGTRGFDYWGRGTLVTVSS
VL: SYELTQPPSVSVSPGQTASITCSGDKLGDTYASWYQQKPGLSPALVIYQDDKRPSGIPERFSGSNSGNTATLTISGTQAMDEADYYCLAWDTRTSGAVFGGGTKLTVL
no binding: all assays above

Results are given in words; binding and its absence hold for the method and conditions named.
